According to the supplement of paper PMC8728848:
This is one part of the list.

How the values were obtained:
Assay in all cases: glycan array binding signal (z-score within array); higher = stronger binding
Details in all cases: glycan notation: IUPAC condensed, linker removed
Glc(b1-4)Glc = target: Glc(b1-4)Glc
Summary of the method: (§1)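 Glycan array data came from 3228 arrays in the Consortium for Functional Glycomics database, and only arrays with an available protein sequence were kept. Glycan names were put into IUPAC-condensed notation, and columns mapping to the same glycan were averaged. The binding signal is a within-array Z-score, averaged across arrays of one protein sequence run at different concentrations or buffers and across linkers. A negative Z-score can be read as non-binding.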

Glc(b1-6)Glc = target: Glc(b1-6)Glc
Summary of the method: as §1

GlcA(b1-3)Gal = target: GlcA(b1-3)Gal
Summary of the method: as §1

GlcA(b1-3)GlcNAc = target: GlcA(b1-3)GlcNAc
Summary of the method: as §1

GlcA(b1-6)Gal = target: GlcA(b1-6)Gal
Summary of the method: as §1

[1] = target: GlcA3S(b1-3)Gal(b1-4)GlcNAc(b1-2)Man
Summary of the method: as §1

[2] = target: GlcA3S(b1-3)Gal(b1-4)GlcNAc(b1-3)Gal(b1-4)Glc
Summary of the method: as §1

[3] = target: GlcNAc(a1-3)Gal(b1-4)GlcNAc
Summary of the method: as §1

[4] = target: GlcNAc(a1-4)Gal(b1-3)GlcNAc
Summary of the method: as §1

[5] = target: GlcNAc(a1-4)Gal(b1-4)GalNAc
Summary of the method: as §1

[6] = target: GlcNAc(a1-4)Gal(b1-4)GlcNAc
Summary of the method: as §1

[7] = target: GlcNAc(a1-4)Gal(b1-4)GlcNAc(b1-3)Gal(b1-4)Glc
Summary of the method: as §1

[8] = target: GlcNAc(a1-4)Gal(b1-4)GlcNAc(b1-3)Gal(b1-4)GlcNAc
Summary of the method: as §1

[9] = target: GlcNAc(a1-4)Gal(b1-4)GlcNAc(b1-3)Gal(b1-4)GlcNAc(b1-3)Gal(b1-4)GlcNAc
Summary of the method: as §1

[10] = target: GlcNAc(a1-4)Gal(b1-4)GlcNAc(b1-3)Gal(b1-4)[Fuc(a1-3)]GlcNAc(b1-3)Gal(b1-4)[Fuc(a1-3)]GlcNAc
Summary of the method: as §1

[11] = target: GlcNAc(a1-6)Gal(b1-4)GlcNAc
Summary of the method: as §1

[12] = target: GlcNAc(b1-2)Gal(b1-3)GalNAc
Summary of the method: as §1

[13] = target: GlcNAc(b1-2)Man(a1-3)[GlcNAc(b1-2)Man(a1-6)]Man(b1-4)GlcNAc(b1-4)GlcNAc
Summary of the method: as §1

[14] = target: GlcNAc(b1-2)Man(a1-3)[GlcNAc(b1-2)Man(a1-6)]Man(b1-4)GlcNAc(b1-4)[Fuc(a1-6)]GlcNAc
Summary of the method: as §1

[15] = target: GlcNAc(b1-2)Man(a1-3)[GlcNAc(b1-4)][GlcNAc(b1-2)Man(a1-6)]Man(b1-4)GlcNAc(b1-4)GlcNAc
Summary of the method: as §1

[16] = target: GlcNAc(b1-2)Man(a1-3)[GlcNAc(b1-4)][GlcNAc(b1-2)Man(a1-6)]Man(b1-4)GlcNAc(b1-4)[Fuc(a1-6)]GlcNAc
Summary of the method: as §1

[17] = target: GlcNAc(b1-2)[GlcNAc(b1-4)]Man(a1-3)[GlcNAc(b1-2)Man(a1-6)]Man(b1-4)GlcNAc(b1-4)GlcNAc
Summary of the method: as §1

[18] = target: GlcNAc(b1-2)[GlcNAc(b1-4)]Man(a1-3)[GlcNAc(b1-4)][GlcNAc(b1-2)Man(a1-6)]Man(b1-4)GlcNAc(b1-4)GlcNAc
Summary of the method: as §1

[19] = target: GlcNAc(b1-2)[GlcNAc(b1-4)]Man(a1-3)[GlcNAc(b1-4)][GlcNAc(b1-2)[GlcNAc(b1-6)]Man(a1-6)]Man(b1-4)GlcNAc(b1-4)GlcNAc
Summary of the method: as §1

[20] = target: GlcNAc(b1-2)[GlcNAc(b1-4)]Man(a1-3)[GlcNAc(b1-4)][GlcNAc(b1-2)[GlcNAc(b1-6)]Man(a1-6)]Man(b1-4)GlcNAc(b1-4)[Fuc(a1-6)]GlcNAc
Summary of the method: as §1

[21] = target: GlcNAc(b1-2)[GlcNAc(b1-6)]Man(a1-6)[GlcNAc(b1-2)Man(a1-3)]Man(b1-4)GlcNAc(b1-4)GlcNAc
Summary of the method: as §1

[22] = target: GlcNAc(b1-2)[GlcNAc(b1-6)]Man(a1-6)[GlcNAc(b1-2)Man(a1-3)]Man(b1-4)GlcNAc(b1-4)[Fuc(a1-6)]GlcNAc
Summary of the method: as §1

[23] = target: GlcNAc(b1-2)[GlcNAc(b1-6)]Man(a1-6)[GlcNAc(b1-4)][GlcNAc(b1-2)Man(a1-3)]Man(b1-4)GlcNAc(b1-4)GlcNAc
Summary of the method: as §1

GlcNAc(b1-3)Fuc = target: GlcNAc(b1-3)Fuc
Summary of the method: as §1

GlcNAc(b1-3)Gal = target: GlcNAc(b1-3)Gal
Summary of the method: as §1

[24] = target: GlcNAc(b1-3)Gal(b1-3)GalNAc
Summary of the method: as §1

GlcNAc(b1-3)Gal(b1-4)Glc = target: GlcNAc(b1-3)Gal(b1-4)Glc
Summary of the method: as §1

[25] = target: GlcNAc(b1-3)Gal(b1-4)GlcNAc
Summary of the method: as §1

[26] = target: GlcNAc(b1-3)Gal(b1-4)GlcNAc(b1-2)Man(a1-3)[GlcNAc(b1-3)Gal(b1-4)GlcNAc(b1-2)Man(a1-6)]Man(b1-4)GlcNAc(b1-4)GlcNAc
Summary of the method: as §1

[27] = target: GlcNAc(b1-3)Gal(b1-4)GlcNAc(b1-2)Man(a1-3)[GlcNAc(b1-3)Gal(b1-4)GlcNAc(b1-2)Man(a1-6)]Man(b1-4)GlcNAc(b1-4)[Fuc(a1-6)]GlcNAc
Summary of the method: as §1

[28] = target: GlcNAc(b1-3)Gal(b1-4)GlcNAc(b1-2)[GlcNAc(b1-3)Gal(b1-4)GlcNAc(b1-6)]Man(a1-6)[GlcNAc(b1-3)Gal(b1-4)GlcNAc(b1-2)Man(a1-3)]Man(b1-4)GlcNAc(b1-4)GlcNAc
Summary of the method: as §1

[29] = target: GlcNAc(b1-3)Gal(b1-4)GlcNAc(b1-3)Gal(b1-4)GlcNAc
Summary of the method: as §1

[30] = target: GlcNAc(b1-3)Gal(b1-4)GlcNAc(b1-3)Gal(b1-4)GlcNAc(b1-2)Man(a1-3)[GlcNAc(b1-3)Gal(b1-4)GlcNAc(b1-3)Gal(b1-4)GlcNAc(b1-2)Man(a1-6)]Man(b1-4)GlcNAc(b1-4)GlcNAc
Summary of the method: as §1

[31] = target: GlcNAc(b1-3)Gal(b1-4)GlcNAc(b1-3)Gal(b1-4)GlcNAc(b1-2)Man(a1-3)[GlcNAc(b1-3)Gal(b1-4)GlcNAc(b1-3)Gal(b1-4)GlcNAc(b1-2)Man(a1-6)]Man(b1-4)GlcNAc(b1-4)[Fuc(a1-6)]GlcNAc
Summary of the method: as §1

[32] = target: GlcNAc(b1-3)Gal(b1-4)GlcNAc(b1-3)Gal(b1-4)GlcNAc(b1-2)[GlcNAc(b1-3)Gal(b1-4)GlcNAc(b1-3)Gal(b1-4)GlcNAc(b1-6)]Man(a1-6)[GlcNAc(b1-3)Gal(b1-4)GlcNAc(b1-3)Gal(b1-4)GlcNAc(b1-2)Man(a1-3)]Man(b1-4)GlcNAc(b1-4)[Fuc(a1-6)]GlcNAc
Summary of the method: as §1

[33] = target: GlcNAc(b1-3)Gal(b1-4)GlcNAc(b1-3)Gal(b1-4)GlcNAc(b1-3)Gal(b1-4)GlcNAc(b1-2)Man(a1-3)[GlcNAc(b1-3)Gal(b1-4)GlcNAc(b1-3)Gal(b1-4)GlcNAc(b1-3)Gal(b1-4)GlcNAc(b1-2)Man(a1-6)]Man(b1-4)GlcNAc(b1-4)GlcNAc
Summary of the method: as §1

[34] = target: GlcNAc(b1-3)Gal(b1-4)GlcNAc(b1-3)Gal(b1-4)GlcNAc(b1-3)Gal(b1-4)GlcNAc(b1-2)Man(a1-3)[GlcNAc(b1-3)Gal(b1-4)GlcNAc(b1-3)Gal(b1-4)GlcNAc(b1-3)Gal(b1-4)GlcNAc(b1-2)Man(a1-6)]Man(b1-4)GlcNAc(b1-4)[Fuc(a1-6)]GlcNAc
Summary of the method: as §1

[35] = target: GlcNAc(b1-3)Gal(b1-4)GlcNAc(b1-3)Gal(b1-4)GlcNAc(b1-3)Gal(b1-4)GlcNAc(b1-2)[GlcNAc(b1-3)Gal(b1-4)GlcNAc(b1-3)Gal(b1-4)GlcNAc(b1-3)Gal(b1-4)GlcNAc(b1-6)]Man(a1-6)[GlcNAc(b1-3)Gal(b1-4)GlcNAc(b1-3)Gal(b1-4)GlcNAc(b1-3)Gal(b1-4)GlcNAc(b1-2)Man(a1-3)]Man(b1-4)GlcNAc(b1-4)[Fuc(a1-6)]GlcNAc
Summary of the method: as §1

[36] = target: GlcNAc(b1-3)Gal(b1-4)GlcNAc(b1-3)Gal(b1-4)GlcNAc(b1-3)Gal(b1-4)GlcNAc(b1-3)Gal(b1-4)GlcNAc(b1-2)Man(a1-3)[GlcNAc(b1-3)Gal(b1-4)GlcNAc(b1-3)Gal(b1-4)GlcNAc(b1-3)Gal(b1-4)GlcNAc(b1-3)Gal(b1-4)GlcNAc(b1-2)Man(a1-6)]Man(b1-4)GlcNAc(b1-4)GlcNAc
Summary of the method: as §1

[37] = target: GlcNAc(b1-3)Gal(b1-4)GlcNAc(b1-3)Gal(b1-4)GlcNAc(b1-3)Gal(b1-4)GlcNAc(b1-3)Gal(b1-4)GlcNAc(b1-2)Man(a1-3)[GlcNAc(b1-3)Gal(b1-4)GlcNAc(b1-3)Gal(b1-4)GlcNAc(b1-3)Gal(b1-4)GlcNAc(b1-3)Gal(b1-4)GlcNAc(b1-2)Man(a1-6)]Man(b1-4)GlcNAc(b1-4)[Fuc(a1-6)]GlcNAc
Summary of the method: as §1

B1: Drgal1 (Danio rerio) (protein)
chain: MAGVLIQNMSFKVGQTLTITGVPKPDSTNFAINIGHSPEDIALHMNPRFDAHGDQCTIVCNSFQSGSWCEEHRDDNFPFIQDKEFQIKITFTNEEFLVTLPDGSEIHFPNRQGSEKYKYMYFEGEVRIQGVEIK
In the case of B1, the “glycan array binding signal (z-score)” value (Glc(b1-4)Glc) is reported as -0.403, the “glycan array binding signal (z-score)” value (Glc(b1-6)Glc) is reported as -0.633 and the “glycan array binding signal (z-score)” value (GlcA(b1-3)Gal) is reported as -0.673. For the same binder, the “glycan array binding signal (z-score)” value (GlcA(b1-3)GlcNAc) was -0.083, the “glycan array binding signal (z-score)” value (GlcA(b1-6)Gal) was -0.236 and the “glycan array binding signal (z-score)” value [1] was -0.207. For the same binder, the “glycan array binding signal (z-score)” value [2] was 0.153, the “glycan array binding signal (z-score)” value [3] was 0.004 and the “glycan array binding signal (z-score)” value [4] was 0.083. The “glycan array binding signal (z-score)” value [5] was 0.082, the “glycan array binding signal (z-score)” value [6] was -0.482 and the “glycan array binding signal (z-score)” value [7] was 0.258. For the same binder, the “glycan array binding signal (z-score)” value [8] was -0.473, the “glycan array binding signal (z-score)” value [9] was 0.122 and the “glycan array binding signal (z-score)” value [10] was 0.686. For the same binder, the “glycan array binding signal (z-score)” value [11] was 0.139, the “glycan array binding signal (z-score)” value [12] was 0.337 and the “glycan array binding signal (z-score)” value [13] was -0.291. For the same binder, the “glycan array binding signal (z-score)” value [14] was 0.421, the “glycan array binding signal (z-score)” value [15] was -0.094 and the “glycan array binding signal (z-score)” value [16] was -0.169. The “glycan array binding signal (z-score)” value [17] was -0.339, the “glycan array binding signal (z-score)” value [18] was -0.481 and the “glycan array binding signal (z-score)” value [19] was -0.413. For the same binder, the “glycan array binding signal (z-score)” value [20] was -0.012, the “glycan array binding signal (z-score)” value [21] was -0.116 and the “glycan array binding signal (z-score)” value [22] was -0.01. The “glycan array binding signal (z-score)” value [23] was -0.466, the “glycan array binding signal (z-score)” value (GlcNAc(b1-3)Fuc) was 0.024 and the “glycan array binding signal (z-score)” value (GlcNAc(b1-3)Gal) was -0.625. The “glycan array binding signal (z-score)” value [24] was -0.481, the “glycan array binding signal (z-score)” value (GlcNAc(b1-3)Gal(b1-4)Glc) was -0.108 and the “glycan array binding signal (z-score)” value [25] was -0.358. The “glycan array binding signal (z-score)” value [26] was 0.058, the “glycan array binding signal (z-score)” value [27] was 0.125 and the “glycan array binding signal (z-score)” value [28] was 0.447. For the same binder, the “glycan array binding signal (z-score)” value [29] was 0.43, the “glycan array binding signal (z-score)” value [30] was 0.923 and the “glycan array binding signal (z-score)” value [31] was 0.195. The “glycan array binding signal (z-score)” value [32] was 0.737, the “glycan array binding signal (z-score)” value [33] was 0.918 and the “glycan array binding signal (z-score)” value [34] was 1.67. The “glycan array binding signal (z-score)” value [35] was 0.847, the “glycan array binding signal (z-score)” value [36] was 0.678 and the “glycan array binding signal (z-score)” value [37] was 1.4.
